B1: DARS2 (protein, UniProt Q6PI48 48-645, looked up)
Aspartate--tRNA ligase, …: VVRTNTCGELRSSHLGQEVTLCGWIQYRRQNTFLVLRDFDGLVQVIIPQDESAASVKKILCEAPVESVVQVSGTVISRPAGQENPKMPTGEIEIKVKTAELLNACKKLPFEIKNFVKKTEALRLQYRYLDLRSFQMQYNLRLRSQMVMKMREYLCNLHGFVDIETPTLFKRTPGGAKEFLVPSREPGKFYSLPQSPQQFKQLLMVGGLDRYFQVARCYRDEGSRPDRQPEFTQIDIEMSFVDQTGIQSLIEGLLQYSWPNDKDPVVVPFPTMTFAEVLATYGTDKPDTRFGMKIIDISDVFRNTEIGFLQDALSKPHGTVKAICIPEGAKYLKRKDIESIRNFAADHFNQEILPVFLNANRNWNSPVANFIMESQRLELIRLMETQEEDVVLLTAGEHNKACSLLGKLRLECADLLETRGVVLRDPTLFSFLWVVDFPLFLPKEENPRELESAHHPFTAPHPSDIHLLYTEPKKARSQHYDLVLNGNEIGGGSIRIHNAELQRYILATLLKEDVKMLSHLLQALDYGAPPHGGIALGLDRLICLVTGSPSIRDVIAFPKSFRGHDLMSNTPDSVPPEELKPYHIRVSKPTDSKAERAH
B2: DDX28 (protein, UniProt Q9NUL7 1-540, looked up)
Probable ATP-dependent RNA …: MALTRPVRLFSLVTRLLLAPRRGLTVRSPDEPLPVVRIPVALQRQLEQRQSRRRNLPRPVLVRPGPLLVSARRPELNQPARLTLGRWERAPLASQGWKSRRARRDHFSIERAQQEAPAVRKLSSKGSFADLGLEPRVLHALQEAAPEVVQPTTVQSSTIPSLLRGRHVVCAAETGSGKTLSYLLPLLQRLLGQPSLDSLPIPAPRGLVLVPSRELAQQVRAVAQPLGRSLGLLVRDLEGGHGMRRIRLQLSRQPSADVLVATPGALWKALKSRLISLEQLSFLVLDEADTLLDESFLELVDYILEKSHIAEGPADLEDPFNPKAQLVLVGATFPEGVGQLLNKVASPDAVTTITSSKLHCIMPHVKQTFLRLKGADKVAELVHILKHRDRAERTGPSGTVLVFCNSSSTVNWLGYILDDHKIQHLRLQGQMPALMRVGIFQSFQKSSRDILLCTDIASRGLDSTGVELVVNYDFPPTLQDYIHRAGRVGRVGSEVPGTVISFVTHPWDVSLVQKIELAARRRRSLPGLASSVKEPLPQAT
B3: DHX30 (protein, UniProt Q7L2E3 1-1194, looked up)
ATP-dependent RNA helicase …: MFSLDSFRKDRAQHRQRQCKLPPPRLPPMCVNPTPGGTISRASRDLLKEFPQPKNLLNSVIGRALGISHAKDKLVYVHTNGPKKKKVTLHIKWPKSVEVEGYGSKKIDAERQAAAAACQLFKGWGLLGPRNELFDAAKYRVLADRFGSPADSWWRPEPTMPPTSWRQLNPESIRPGGPGGLSRSLGREEEEDEEEELEEGTIDVTDFLSMTQQDSHAPLRDSRGSSFEMTDDDSAIRALTQFPLPKNLLAKVIQIATSSSTAKNLMQFHTVGTKTKLSTLTLLWPCPMTFVAKGRRKAEAENKAAALACKKLKSLGLVDRNNEPLTHAMYNLASLRELGETQRRPCTIQVPEPILRKIETFLNHYPVESSWIAPELRLQSDDILPLGKDSGPLSDPITGKPYVPLLEAEEVRLSQSLLELWRRRGPVWQEAPQLPVDPHRDTILNAIEQHPVVVISGDTGCGKTTRIPQLLLERYVTEGRGARCNVIITQPRRISAVSVAQRVSHELGPSLRRNVGFQVRLESKPPSRGGALLFCTVGILLRKLQSNPSLEGVSHVIVDEVHERDVNTDFLLILLKGLQRLNPALRLVLMSATGDNERFSRYFGGCPVIKVPGFMYPVKEHYLEDILAKLGKHQYLHRHRHHESEDECALDLDLVTDLVLHIDARGEPGGILCFLPGWQEIKGVQQRLQEALGMHESKYLILPVHSNIPMMDQKAIFQQPPVGVRKIVLATNIAETSITINDIVHVVDSGLHKEERYDLKTKVSCLETVWVSRANVIQRRGRAGRCQSGFAYHLFPRSRLEKMVPFQVPEILRTPLENLVLQAKIHMPEKTAVEFLSKAVDSPNIKAVDEAVILLQEIGVLDQREYLTTLGQRLAHISTDPRLAKAIVLAAIFRCLHPLLVVVSCLTRDPFSSSLQNRAEVDKVKALLSHDSGSDHLAFVRAVAGWEEVLRWQDRSSRENYLEENLLYAPSLRFIHGLIKQFSENIYEAFLVGKPSDCTLASAQCNEYSEEEELVKGVLMAGLYPNLIQVRQGKVTRQGKFKPNSVTYRTKSGNILLHKSTINREATRLRSRWLTYFMAVKSNGSVFVRDSSQVHPLAVLLLTDGDVHIRDDGRRATISLSDSDLLRLEGDSRTVRLLKELRRALGRMVERSLRSELAALPPSVQEEHGQLLALLAELLRGPCGSFDVRKTADD
B4: DLAT (protein, UniProt P10515 87-647, looked up)
Dihydrolipoyllysine-residue …: SLPPHQKVPLPSLSPTMQAGTIARWEKKEGDKINEGDLIAEVETDKATVGFESLEECYMAKILVAEGTRDVPIGAIICITVGKPEDIEAFKNYTLDSSAAPTPQAAPAPTPAATASPPTPSAQAPGSSYPPHMQVLLPALSPTMTMGTVQRWEKKVGEKLSEGDLLAEIETDKATIGFEVQEEGYLAKILVPEGTRDVPLGTPLCIIVEKEADISAFADYRPTEVTDLKPQVPPPTPPPVAAVPPTPQPLAPTPSAPCPATPAGPKGRVFVSPLAKKLAVEKGIDLTQVKGTGPDGRITKKDIDSFVPSKVAPAPAAVVPPTGPGMAPVPTGVFTDIPISNIRRVIAQRLMQSKQTIPHYYLSIDVNMGEVLLVRKELNKILEGRSKISVNDFIIKASALACLKVPEANSSWMDTVIRQNHVVDVSVAVSTPAGLITPIVFNAHIKGVETIANDVVSLATKAREGKLQPHEFQGGTFTISNLGMFGIKNFSAIINPPQACILAIGASEDKLVPADNEKGFDVASMMSVTLSCDHRVVDGAVGAQWLAEFRKYLEKPITMLL
B5: ECH1 (protein, UniProt Q13011 34-328, looked up)
Delta(3,5)-Delta(2,4)-dienoyl- …: TGSSAQEEASGVALGEAPDHSYESLRVTSAQKHVLHVQLNRPNKRNAMNKVFWREMVECFNKISRDADCRAVVISGAGKMFTAGIDLMDMASDILQPKGDDVARISWYLRDIITRYQETFNVIERCPKPVIAAVHGGCIGGGVDLVTACDIRYCAQDAFFQVKEVDVGLAADVGTLQRLPKVIGNQSLVNELAFTARKMMADEALGSGLVSRVFPDKEVMLDAALALAAEISSKSPVAVQSTKVNLLYSRDHSVAESLNYVASWNMSMLQTQDLVKSVQATTENKELKTVTFSKL
B6: ETFA (protein, UniProt P13804 20-333, looked up)
Electron transfer …: QSTLVIAEHANDSLAPITLNTITAATRLGGEVSCLVAGTKCDKVAQDLCKVAGIAKVLVAQHDVYKGLLPEELTPLILATQKQFNYTHICAGASAFGKNLLPRVAAKLEVAPISDIIAIKSPDTFVRTIYAGNALCTVKCDEKVKVFSVRGTSFDAAATSGGSASSEKASSTSPVEISEWLDQKLTKSDRPELTGAKVVVSGGRGLKSGENFKLLYDLADQLHAAVGASRAAVDAGFVPNDMQVGQTGKIVAPELYIAVGISGAIQHLAGMKDSKTIVAINKDPEAPIFQVADYGIVADLFKVVPEMTEILKKK
B7: ETFB (protein, UniProt P38117 2-255, looked up)
Electron transfer …: AELRVLVAVKRVIDYAVKIRVKPDRTGVVTDGVKHSMNPFCEIAVEEAVRLKEKKLVKEVIAVSCGPAQCQETIRTALAMGADRGIHVEVPPAEAERLGPLQVARVLAKLAEKEKVDLVLLGKQAIDDDCNQTGQMTAGFLDWPQGTFASQVTLEGDKLKVEREIDGGLETLRLKLPAVVTADLRLNEPRYATLPNIMKAKKKKIEVIKPGDLGVDLTSKLSVISVEDPPQRTAGVKVETTEDLVAKLKEIGRI
B8: FDXR (protein, UniProt P22570 33-491, looked up)
NADPH:adrenodoxin …: STQEKTPQICVVGSGPAGFYTAQHLLKHPQAHVDIYEKQPVPFGLVRFGVAPDHPEVKNVINTFTQTAHSGRCAFWGNVEVGRDVTVPELREAYHAVVLSYGAEDHRALEIPGEELPGVCSARAFVGWYNGLPENQELEPDLSCDTAVILGQGNVALDVARILLTPPEHLERTDITKAALGVLRQSRVKTVWLVGRRGPLQVAFTIKELREMIQLPGARPILDPVDFLGLQDKIKEVPRPRKRLTELLLRTATEKPGPAEAARQASASRAWGLRFFRSPQQVLPSPDGRRAAGVRLAVTRLEGVDEATRAVPTGDMEDLPCGLVLSSIGYKSRPVDPSVPFDSKLGVIPNVEGRVMDVPGLYCSGWVKRGPTGVIATTMTDSFLTGQMLLQDLKAGLLPSGPRPGYAAIQALLSSRGVRPVSFSDWEKLDAEEVARGQGTGKPREKLVDPQEMLRLLGH
B9: FH (protein, UniProt P07954 45-510, looked up)
Fumarate hydratase, …: ASQNSFRIEYDTFGELKVPNDKYYGAQTVRSTMNFKIGGVTERMPTPVIKAFGILKRAAAEVNQDYGLDPKIANAIMKAADEVAEGKLNDHFPLVVWQTGSGTQTNMNVNEVISNRAIEMLGGELGSKIPVHPNDHVNKSQSSNDTFPTAMHIAAAIEVHEVLLPGLQKLHDALDAKSKEFAQIIKIGRTHTQDAVPLTLGQEFSGYVQQVKYAMTRIKAAMPRIYELAAGGTAVGTGLNTRIGFAEKVAAKVAALTGLPFVTAPNKFEALAAHDALVELSGAMNTTACSLMKIANDIRFLGSGPRSGLGELILPENEPGSSIMPGKVNPTQCEAMTMVAAQVMGNHVAVTVGGSNGHFELNVFKPMMIKNVLHSARLLGDASVSFTENCVVGIQANTERINKLMNESLMLVTALNPHIGYDKAAKIAKTAHKNGSTLKETAIELGYLTAEQFDEWVKPKDMLGPK
B10: GCDH (protein, UniProt Q92947 45-438, looked up)
Glutaryl-CoA dehydrogenase, …: RPEFDWQDPLVLEEQLTTDEILIRDTFRTYCQERLMPRILLANRNEVFHREIISEMGELGVLGPTIKGYGCAGVSSVAYGLLARELERVDSGYRSAMSVQSSLVMHPIYAYGSEEQRQKYLPQLAKGELLGCFGLTEPNSGSDPSSMETRAHYNSSNKSYTLNGTKTWITNSPMADLFVVWARCEDGCIRGFLLEKGMRGLSAPRIQGKFSLRASATGMIIMDGVEVPEENVLPGASSLGGPFGCLNNARYGIAWGVLGASEFCLHTARQYALDRMQFGVPLARNQLIQKKLADMLTEITLGLHACLQLGRLKDQDKAAPEMVSLLKRNNCGKALDIARQARDMLGGNGISDEYHVIRHAMNLEAVNTYEGTHDIHALILGRAITGIQAFTASK
B11: GLRX5 (protein, UniProt Q86SX6 32-157, looked up)
Glutaredoxin-related protein …: AGSGAGGGGSAEQLDALVKKDKVVVFLKGTPEQPQCGFSNAVVQILRLHGVRDYAAYNVLDDPELRQGIKDYSNWPTIPQVYLNGEFVGGCDILLQMHQNGDLVEELKKLGIHSALLDEKKDQDSK

Test system: mitochondrial proteins of HEK293 T-REx cells
Experiment: Mitochondrial proteome profiling for WT and CLPP^−/− (fold change CLPP^−/−/WT)
Set-up: species or system human
Settings: fold change of mitochondrial protein detected in CLPP knockout compared to WT HEK293 T-REx cells; MaxQuant total peptide ion intensity

First: B1
Second: B2
The “Avg. fold change (CLPP KO/WT)” value of the first is higher: −1.07 for the first, −1.36 for the second.

Going from B3 to B4, the “Avg. fold change (CLPP KO/WT)” value falls from −1.19 to −1.43.

First: B5
Second: B6
The “Avg. fold change (CLPP KO/WT)” value of the first is higher: 1.33 for the first, 1.06 for the second.

Compared with B7, B8 is higher in “Avg. fold change (CLPP KO/WT)” value: −1.46 for the first, −1.17 for the second.

First: B9
Second: B10
The “Avg. fold change (CLPP KO/WT)” value of the first is lower: −1.39 for the first, 1.16 for the second.

For B11, the “Avg. fold change (CLPP KO/WT)” value was 1.46.

— patent US20210171576A1, “METHODS FOR TREATING CANCER WITH ACYLDEPSIPEPTIDE ANALOGS” (priority 2018, published 2021)
